These are yes or no findings as the source states them, for the method shown. Binding calls can cover weak binding; strength is not graded here.
Columns and labels:
CD36 (human) [1] = biological target: CD36 (human) (UniProt P16671); assay: flow cytometry on HMEC-1 cells with oxidized antithrombin III, detection with anti-TSP-1 clone P10-PE (FIG. 15b)
CD36 (human) [2] = biological target: CD36 (human) (UniProt P16671); assay: flow cytometry on monocytes with anti-TSP-1 clone P10; TSP-1 and oxidized ATIII added (FIG. 15c)
CD36 (human) [3] = biological target: CD36 (human) (UniProt P16671); assay: summary in the legend of FIG. 16a
CD36 (human) [4] = biological target: CD36 (human) (UniProt P16671); assay: flow cytometry on Jurkat cells with oxidized antithrombin III, with or without TSP-1 25 µg/ml, detection with anti-TSP clone P10-PE (FIG. 15d)
CD36 (human) [5] = biological target: CD36 (human) (UniProt P16671); assay: flow cytometry, FITC-conjugated TSP-1 (50 µg/ml) on human thrombocytes with oxidized fibrinogen (FIG. 15a)
CD36 (human) [6] = biological target: CD36 (human) (UniProt P16671); assay: flow cytometry on cells, in the presence of oxidized proteins (FIGS. 15a-d)

The chains behind the UniProt entries cited, without tags or fusion partners. Where a name states a change or a piece, a line headed by the entry shows the natural chain unless it says otherwise. Residues count along the entry.
UniProt P16671: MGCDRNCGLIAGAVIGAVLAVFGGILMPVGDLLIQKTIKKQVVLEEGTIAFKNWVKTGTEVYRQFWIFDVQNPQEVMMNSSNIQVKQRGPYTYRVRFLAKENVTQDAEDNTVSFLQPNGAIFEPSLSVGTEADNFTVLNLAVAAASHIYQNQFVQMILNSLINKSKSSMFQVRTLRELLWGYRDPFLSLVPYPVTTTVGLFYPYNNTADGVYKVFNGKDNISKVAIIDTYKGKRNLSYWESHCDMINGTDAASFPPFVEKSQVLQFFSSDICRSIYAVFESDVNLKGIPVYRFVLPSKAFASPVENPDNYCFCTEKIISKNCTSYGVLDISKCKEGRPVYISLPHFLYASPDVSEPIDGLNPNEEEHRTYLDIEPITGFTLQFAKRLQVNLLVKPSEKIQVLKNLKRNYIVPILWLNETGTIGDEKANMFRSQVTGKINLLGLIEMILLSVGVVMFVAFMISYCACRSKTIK
UniProt P07996, residues 19-1170: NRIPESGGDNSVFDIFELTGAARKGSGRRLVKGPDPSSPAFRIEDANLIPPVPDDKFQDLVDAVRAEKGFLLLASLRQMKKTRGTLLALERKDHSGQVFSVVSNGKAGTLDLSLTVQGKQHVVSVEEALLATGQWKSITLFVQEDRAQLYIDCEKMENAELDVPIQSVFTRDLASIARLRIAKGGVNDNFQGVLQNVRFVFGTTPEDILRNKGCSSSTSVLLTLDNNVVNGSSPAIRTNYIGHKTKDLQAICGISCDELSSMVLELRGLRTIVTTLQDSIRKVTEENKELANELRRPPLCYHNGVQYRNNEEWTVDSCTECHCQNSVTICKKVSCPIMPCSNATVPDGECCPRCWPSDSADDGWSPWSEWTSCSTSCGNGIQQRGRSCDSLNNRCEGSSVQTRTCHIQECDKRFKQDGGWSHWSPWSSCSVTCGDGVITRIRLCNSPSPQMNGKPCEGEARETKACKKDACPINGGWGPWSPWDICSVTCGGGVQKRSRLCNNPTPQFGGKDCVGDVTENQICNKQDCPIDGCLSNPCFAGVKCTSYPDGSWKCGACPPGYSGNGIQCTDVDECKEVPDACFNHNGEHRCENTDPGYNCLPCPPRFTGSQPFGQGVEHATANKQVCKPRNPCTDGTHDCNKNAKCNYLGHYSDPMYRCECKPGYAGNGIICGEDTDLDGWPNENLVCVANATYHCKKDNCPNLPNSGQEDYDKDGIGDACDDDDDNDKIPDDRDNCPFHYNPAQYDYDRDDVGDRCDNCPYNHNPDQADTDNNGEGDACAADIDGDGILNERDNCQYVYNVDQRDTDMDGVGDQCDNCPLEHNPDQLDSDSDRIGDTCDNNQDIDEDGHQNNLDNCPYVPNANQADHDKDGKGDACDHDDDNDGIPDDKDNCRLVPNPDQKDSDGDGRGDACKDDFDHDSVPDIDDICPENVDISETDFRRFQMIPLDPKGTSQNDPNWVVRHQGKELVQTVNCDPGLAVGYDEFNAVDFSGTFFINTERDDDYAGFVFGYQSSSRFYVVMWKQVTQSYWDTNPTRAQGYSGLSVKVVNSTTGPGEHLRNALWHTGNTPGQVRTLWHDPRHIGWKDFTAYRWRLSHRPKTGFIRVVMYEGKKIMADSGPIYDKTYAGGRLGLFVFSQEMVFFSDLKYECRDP

Measured: binding

human thrombospondin-1 (from UniProt P07996 19-1170) (ligand)
binds: all assays above
